Assay: Complex stability constant K calculated from the phase-solubility curve
Assay type: physicochemical
Procedure: The solubility studies were performed according to the method described below which is well known in the litrature. Excess amounts of the Steroid were added to aqueous solutions of 2,6-dimethyl-β-cyclodextrin. These suspensions were shaken at room temperature during 5 days followed by an equilibration period of 3 days at room temperature. Then an aliquot was centrifuged and the supernatant was filtered through a 0,45 µm membrane filter (Millipore: HV4, Millex). The samples were analysed with the Perkin Elmer Lambda 5 UV/VIS spectrophotometer. The absorbance was read and compared with a blanc and standard calibration curve. […] After calculation of the amount of Steroid dissolved, a phase-solubility diagram was constructed by plotting the dissolved amounts of Steroid as a function of the concentration of 2,6-dimethyl-β-cyclodextrin (see Graph).
From the curve obtained the complex stability constant K was calculated using the formula: [formula]
This complex-stability constant K is also a measure for the solubility of the Steroid in water. The higher this complex-stability constant, the better is the stability of the complex and the higher is the solubility in water.

**Q.** Which K (complex with 2,6-dimethyl-β-cyclodextrin) does the source give for CCC(=O)[C@@]1(C)[C@H](C)C[C@H]2[C@@H]3CCC4=CC(=O)C=C[C@]4(C)[C@H]3[C@@H](O)C[C@@]21C [Org 6216, 11β-hydroxy-16α,17α,21-trimethyl-▲¹ʼ⁴-pregnadiene-3,20-dione] here?
**A.** Its K is 58000 mL/mmol.

**Q.** What about the K (complex with α-cyclodextrin) of the same molecule?
**A.** The K was 380 ml.mmol.⁻¹.

**Q.** And the K (complex with β-cylodextrin)?
**A.** The K was 3400 ml.mmol.⁻¹.

**Q.** And the K (complex with τ-cyclodextrin)?
**A.** Its K is 9600 ml.mmol.⁻¹.

From patent publication EP0326196A2, “Aqueous pharmaceutical preparation” (AKZO N.V., priority 1988, dated 1989)
